{"sequences": {"note": "The chains behind the UniProt entries cited, without tags or fusion partners.", "UniProt P28033": "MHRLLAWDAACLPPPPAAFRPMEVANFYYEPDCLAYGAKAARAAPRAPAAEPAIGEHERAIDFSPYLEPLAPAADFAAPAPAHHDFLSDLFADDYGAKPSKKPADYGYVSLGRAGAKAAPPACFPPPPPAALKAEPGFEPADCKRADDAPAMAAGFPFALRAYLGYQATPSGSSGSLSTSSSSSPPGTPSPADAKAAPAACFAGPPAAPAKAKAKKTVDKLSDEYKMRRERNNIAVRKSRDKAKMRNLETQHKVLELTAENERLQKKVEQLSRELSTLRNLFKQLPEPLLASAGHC", "UniProt Q8BTW9": "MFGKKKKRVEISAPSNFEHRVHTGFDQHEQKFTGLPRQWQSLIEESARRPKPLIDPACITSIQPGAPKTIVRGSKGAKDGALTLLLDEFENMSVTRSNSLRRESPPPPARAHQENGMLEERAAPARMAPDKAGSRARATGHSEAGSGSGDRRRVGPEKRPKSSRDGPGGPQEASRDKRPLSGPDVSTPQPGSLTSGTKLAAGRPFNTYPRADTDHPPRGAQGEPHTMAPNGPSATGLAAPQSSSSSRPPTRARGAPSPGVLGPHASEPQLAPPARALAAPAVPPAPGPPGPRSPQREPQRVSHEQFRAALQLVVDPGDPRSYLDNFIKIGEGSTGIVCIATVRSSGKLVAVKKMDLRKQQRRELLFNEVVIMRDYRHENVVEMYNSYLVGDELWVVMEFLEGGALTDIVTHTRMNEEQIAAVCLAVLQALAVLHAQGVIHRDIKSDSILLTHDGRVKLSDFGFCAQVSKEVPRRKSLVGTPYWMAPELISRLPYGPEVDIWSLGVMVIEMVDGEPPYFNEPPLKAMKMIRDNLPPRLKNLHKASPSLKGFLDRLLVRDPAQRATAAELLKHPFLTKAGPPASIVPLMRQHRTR"}, "source": "paper PMC12508475", "target": "CCAAT/enhancer-binding protein β (C/EBPβ), endogenous in 3T3-L1 preadipocytes (mouse (endogenous in 3T3-L1)) (UniProt P28033)", "assay": "co-IP; 3T3-L1 preadipocytes pretreated with or without 30 nM ND201651, then MDI; co-IP on day 1; 100 μg protein, antibody overnight at 4 °C, protein G agarose", "note": "These are yes or no findings as the source states them, for the method shown. In cells and extracts the contact can be indirect. Some results given as binding are weak or reduced against the parent protein; the word gives no strength."}
{"substance": "p21-activated kinase 4 (PAK4), endogenous in 3T3-L1 preadipocytes (from UniProt Q8BTW9 1-593)", "values": [{"measurement": "binding", "value": "binds"}]}
